From PMC5870601
No constants are given. Whether binding was seen depends on the method and setting. Binding seen in cells or lysates may run through a third protein. Some binding calls cover weakened binding; strength is not graded here.

Protein sequences, listed by entry. Tags and fused reporters are not part of them.
UniProt Q86TM6: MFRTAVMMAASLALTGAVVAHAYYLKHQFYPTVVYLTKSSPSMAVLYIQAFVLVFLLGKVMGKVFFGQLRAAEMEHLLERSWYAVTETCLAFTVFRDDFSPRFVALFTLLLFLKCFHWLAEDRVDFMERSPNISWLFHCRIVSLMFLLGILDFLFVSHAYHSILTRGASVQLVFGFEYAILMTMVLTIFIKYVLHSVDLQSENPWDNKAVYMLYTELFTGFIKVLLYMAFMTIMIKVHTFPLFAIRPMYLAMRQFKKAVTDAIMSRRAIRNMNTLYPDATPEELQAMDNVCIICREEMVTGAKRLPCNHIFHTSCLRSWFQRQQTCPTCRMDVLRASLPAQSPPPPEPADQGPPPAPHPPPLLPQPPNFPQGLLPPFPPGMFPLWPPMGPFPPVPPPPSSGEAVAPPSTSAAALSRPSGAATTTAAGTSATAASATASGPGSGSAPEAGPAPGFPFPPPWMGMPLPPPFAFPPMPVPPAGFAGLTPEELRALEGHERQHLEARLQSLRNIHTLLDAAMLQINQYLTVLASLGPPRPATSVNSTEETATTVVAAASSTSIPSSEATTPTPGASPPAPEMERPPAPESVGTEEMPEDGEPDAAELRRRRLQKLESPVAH
UniProt P05198: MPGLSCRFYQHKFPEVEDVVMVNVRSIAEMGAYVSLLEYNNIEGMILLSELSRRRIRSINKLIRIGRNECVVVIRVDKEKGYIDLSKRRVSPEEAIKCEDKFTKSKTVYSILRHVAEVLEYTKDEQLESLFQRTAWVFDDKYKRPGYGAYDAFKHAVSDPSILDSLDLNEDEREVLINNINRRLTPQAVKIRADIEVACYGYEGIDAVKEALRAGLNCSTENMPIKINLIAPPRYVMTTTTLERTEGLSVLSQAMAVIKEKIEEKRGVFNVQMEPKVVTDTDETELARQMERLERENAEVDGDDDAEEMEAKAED

Target: 3-hydroxy-3-methylglutaryl reductase degradation protein (HRD1) (human (endogenous in HKC-8)) (UniProt Q86TM6)
Assay: co-IP; HKC-8 lysate (50 mM Tris, 150 mM NaCl, 1 mM EDTA, 0.5% NP-40, 10% glycerol) incubated overnight with anti-HRD1 antibody, anti-eIF2α antibody or control IgG and protein A/G agarose beads; immunoblot with eIF2α antibodies

## eukaryotic initiation factor (eIF2α) (from UniProt P05198 1-315)
  binding: binds
